Some of these results come from one statement about several compounds together. At least one structure is not confirmed: it was looked up by name or label, or the drawing left a doubt.
Test system: H3K27M DIPG cell lines (H3.3 K27M SF8628, H3.3 K27M DIPG-007, and H3.1 K27M SU-DIPGIV)
Test: Inhibition of DIPG cell growth (cytotoxic activity), 72 hours treatment
Assay type: cell-based, human
Settings: three H3K27M mutant DIPG cell lines (SF8628, DIPG-007, SU-DIPGIV), treated for 72 hours
Method: Specifically, UR-8 and UR-17 induced dose dependent inhibition of the growth of K27M DIPG cells—To determine the potential of the UR-analog series, UR-8 and UR-17 were selected for initial studies on DIPG cell growth. Thus, three H3K27M DIPG cell lines (H3.3 K27M SF8628, H3.3 K27M DIPG-007, and H3.1 K27M SU-DIPGIV) were treated with GSK-J4 (R&D System), UR-8, and UR-17 for 72 hours.

## CCOC(=O)CCNc1cc(N2CCc3ccccc3CC2)nc(-c2ccccn2)n1 [GSK-J4]
  IC50: 4 to 6 µM
